# From the supplement of paper PMC8256030
# “And” between values parts separate entries of the source, which are not always exact repeats. Equal values may be shown once. Where a name gives a salt, the structure may show the parent alone. This is one part of the list. Single values are uncertain here, since repeats match poorly.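 HEK293T cells were given each compound shortly before transfection with a reporter in which red mCherry is followed by the SARS-CoV-2 frameshift element and then GFP in the −1 frame, so GFP appears only after frameshifting.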
# Test system: HEK293T
# Experiment: percent viability (nuclei count) relative to control; higher = more viable cells
# Conditions: 10 µM; 24 h
row,Compound,percent viability
1,CC1OC2(CS1)CN1CCC2CC1 (stereo not drawn) [Evoxac],208%
2,CCN(CC)C(=O)C1(c2ccccc2)CC1CN (stereo not drawn) [milnacipran],245%
3,COc1cc2[nH]c(C)c(CCN3CCN(c4ccccc4)CC3)c2cc1OC [oxypertine],179%
4,O=C(O)c1cc(O)c(O)c(O)c1,310%
5,CC[C@@H](NC(C)C)[C@@H](O)c1ccc(O)c2[nH]c(=O)ccc12 [Procaterol·HCl],300%
6,O=C(O)C[C@H](O)C[C@H](O)/C=C/c1c(C2CC2)nc2ccccc2c1-c1ccc(F)cc1,139%
7,O=c1[nH]c2ccccc2c(=O)n1CCCN1CCN(c2cccc(Cl)c2)CC1 [cloperidone],324%
8,CC(=O)O[C@H]1C[C@H](O[C@H]2[C@@H](O)C[C@H](O[C@H]3[C@@H](O)C[C@H](O[C@H]4CC[C@@]5(C)[C@H](CC[C@@H]6[C@@H]5CC[C@]5(C)[C@@H](C7=CC(=O)OC7)CC[C@]65O)C4)O[C@@H]3C)O[C@@H]2C)O[C@H](C)[C@H]1O [acetyldigitoxin],15.4%
9,C=C1c2cccc(O)c2C(O)=C2C(=O)[C@]3(O)C(O)=C(C(N)=O)C(=O)[C@@H](N(C)C)[C@@H]3[C@@H](O)[C@H]12 [Methacycline],24.9%
10,Cc1ccnc2c1CCCC2C(N)=S (stereo not drawn) [isotiquimide],274%
11,Cc1cc(N)c2ccccc2[n+]1CCCCCCCCCC[n+]1c(C)cc(N)c2ccccc21 [dequalinium chloride],201%
12,Cc1cc(=O)n(-c2ccccc2)n1C [Phenazone],227%
13,CC[N+](C)(C)c1cccc(O)c1 [edrophonium chloride],227%
14,COc1c(N2C[C@@H]3CCCN[C@@H]3C2)c(F)cc2c(=O)c(C(=O)O)cn(C3CC3)c12 [Moxifloxacin·HCl],239%
15,CC(OCCN1CCCCCC1)(c1ccccc1)c1ccc(Cl)cc1 (stereo not drawn) [setastine],282%
16,CC(=O)OCC(=O)[C@@]12N=C(C)O[C@@H]1C[C@H]1[C@@H]3CCC4=CC(=O)C=C[C@]4(C)[C@H]3[C@@H](O)C[C@@]12C,149%
17,CC(C)(O)c1ccccc1CC[C@@H](SCC1(CC(=O)O)CC1)c1cccc(/C=C/c2ccc3ccc(Cl)cc3n2)c1,165%
18,CCN[C@H]1CN(CCCOC)S(=O)(=O)c2sc(S(N)(=O)=O)cc21 [brinzolamide],170% and 194%
19,C#C[C@]1(O)CC[C@H]2[C@@H]3CCC4=CC(=NO)CC[C@@H]4[C@H]3CC[C@@]21CC (mixture of isomers) [norelgestromin],200%
20,CN1C(C(=O)Nc2ccccn2)=C(O)c2sccc2S1(=O)=O,317%
21,CN1N=C2CCN(C(=O)[C@@H](COCc3ccccc3)NC(=O)C(C)(C)N)C[C@@]2(Cc2ccccc2)C1=O [capromorelin],145%
22,Cc1ccc(Nc2c(F)cccc2Cl)c(CC(=O)O)c1 [lumiracoxib],102%
23,CC(=O)Oc1ccccc1C(=O)O [Acetylsalicylic Acid],206%
24,Oc1ccc(C2CNCCc3c2cc(O)c(O)c3Cl)cc1 (stereo not drawn) [Fenoldopam·HCl],223%
25,CCc1cccc(NC2CC3CCC2C3)c1 (stereo not drawn),10.1%
26,CN1CCC[C@@H]1Cc1c[nH]c2ccc(CCS(=O)(=O)c3ccccc3)cc12 [eletriptan],172%
27,C1=CN2CC(c3cccs3)N=C2S1 (stereo not drawn) [antienite],189%
28,CCCCN(CCCC)CC(O)c1cc(Cl)cc2c1-c1ccc(Cl)cc1/C2=C/c1ccc(Cl)cc1 (stereo not drawn) [Benflumetol],279%

# Three structures already listed, sorted by molecular weight, descending.
row,Compound,percent viability
21,CN1N=C2CCN(C(=O)[C@@H](COCc3ccccc3)NC(=O)C(C)(C)N)C[C@@]2(Cc2ccccc2)C1=O [capromorelin],145%
19,C#C[C@]1(O)CC[C@H]2[C@@H]3CCC4=CC(=NO)CC[C@@H]4[C@H]3CC[C@@]21CC (mixture of isomers) [norelgestromin],200%
12,Cc1cc(=O)n(-c2ccccc2)n1C [Phenazone],227%
